Article PMC3415457, “Cohesin Rings Devoid of Scc3 and Pds5 Maintain Their Stable Association with the DNA” (PLoS Genetics, 2012)
These are yes or no findings as the source states them, for the method shown. Some entries that bind do so weakly or less than the wild type. Tags and fused reporters may be left off the sequences shown.

Molecular target: T1, GST fused to the C-terminal region (aa 338–566) of Scc1 (S. cerevisiae (budding yeast)) (UniProt Q12158)
T1 sequence: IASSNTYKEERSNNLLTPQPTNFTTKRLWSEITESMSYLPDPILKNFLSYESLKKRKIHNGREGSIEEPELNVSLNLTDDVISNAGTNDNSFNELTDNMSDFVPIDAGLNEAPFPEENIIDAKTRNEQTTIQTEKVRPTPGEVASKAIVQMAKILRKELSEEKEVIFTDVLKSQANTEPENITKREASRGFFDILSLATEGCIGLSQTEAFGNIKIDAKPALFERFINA
Test: pull-down; GST fusions of Scc1 regions on glutathione-agarose beads; His6-tagged Wpl1, Scc3 and Pds5 mixed together and pre-incubated 30 min at 4°C, then with beads 2 h at 4°C; 20 mM HEPES pH 7.5, 100 mM NaCl, 5% glycerol, 5 mM 2-mercaptoethanol; washes with 0.5% NP-40; Western blot with Penta-His antibody; both purified

binding: binds weakly
B1: Pds5, recombinant, His6-tagged (protein, UniProt Q04264 1-1277)
chain: MAKGAVTKLKFNSPIISTSDQLISTNELLDRLKALHEELASLDQDNTDLTGLDKYRDALVSRKLLKHKDVGIRAFTACCLSDILRLYAPDAPYTDAQLTDIFKLVLSQFEQLGDQENGYHIQQTYLITKLLEYRSIVLLADLPSSNNLLIELFHIFYDPNKSFPARLFNVIGGILGEVISEFDSVPLEVLRLIFNKFLTYNPNEIPEGLNVTSDCGYEVSLILCDTYSNRMSRHLTKYYSEIIHEATNDDNNSRLLTVVVKLHKLVLRLWETVPELINAVIGFIYHELSSENELFRKEATKLIGQILTSYSDLNFVSTHSDTFKAWISKIADISPDVRVEWTESIPQIIATREDISKELNQALAKTFIDSDPRVRRTSVMIFNKVPVTEIWKNITNKAIYTSLLHLAREKHKEVRELCINTMAKFYSNSLNEIERTYQNKEIWEIIDTIPSTLYNLYYINDLNINEQVDSVIFEYLLPFEPDNDKRVHRLLTVLSHFDKKAFTSFFAFNARQIKISFAISKYIDFSKFLNNQESMSSSQGPIVMNKYNQTLQWLASGLSDSTKAIDALETIKQFNDERIFYLLNACVTNDIPFLTFKNCYNELVSKLQTPGLFKKYNISTGASIMPRDIAKVIQILLFRASPIIYNVSNISVLLNLSNNSDAKQLDLKRRILDDISKVNPTLFKDQIRTLKTIIKDLDDPDAEKNDNLSLEEALKTLYKASKTLKDQVDFDDTFFFTKLYDFAVESKPEITKYATKLIALSPKAEETLKKIKIRILPLDLQKDKYFTSHIIVLMEIFKKFPHVLNDDSTDIISYLIKEVLLSNQVVGDSKKEIDWVEDSLLSDTKYSAIGNKVFTLKLFTNKLRSIAPDVPRDELAESFTEKTMKLFFYLIASGGELISEFNKEFYPTPSNYQTKLRCVAGIQVLKLARISNLNNFIKPSDIIKLINLVEDESLPVRKTFLEQLKDYVANELISIKFLPLVFFTAYEPDVELKTTTKIWINFTFGLKSFKKGTIFERALPRLIHAIAHHPDIVGGLDSEGDAYLNALTTAIDYLLFYFDSIAAQENFSLLYYLSERVKNYQDKLVEDEIDEEEGPQKEEAPKKHRPYGQKMYIIGELSQMILLNLKEKKNWQHSAYPGKLNLPSDLFKPFATVQEAQLSFKTYIPESLTEKIQNNIKAKIGRILHTSQTQRQRLQKRLLAHENNESQKKKKKVHHARSQADDEEGDGDRESDSDDDSYSPSNKNETKKGHENIVMKKLRVRKEVDYKDDEDDDIEMT
